PubChem BioAssay AID652259 – Drosophila RNAi Screening Center | 2013
In all, the deposit lists about 22,000 reagents; this is an unselected part of those that have a named target and a result. In the full data, 233 (1.1%) got an active call. 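Light values are raw, unnormalised plate reads; the ratio scores behind the reporter calls were not deposited.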 Names joined by + are all predicted targets of the reagent. Not stated in the record: the amount of reagent, the time to read-out, the dose of the treatment.

- Test: 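Knock-downs that push a Wingless-driven reporter up or down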 (primary screen)
- System: Drosophila clone 8 imaginal disc epithelial cells
- Reagents: long dsRNA against Drosophila genes
- Treatment: pathway stimulated by co-transfected Wingless expression plasmid
- Measurement: 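Firefly luciferase from a tcf-site Wingless reporter, measured alongside co-transfected Renilla luciferase that tracks transfection; pathway stimulated by a Wingless plasmid; the firefly-to-Renilla ratio is not deposited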
- Direction: firefly reporter light: higher = more Wg reporter light, before normalisation; Renilla control light: higher = more transfected or surviving cells
- Call rule: 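a knock-down is a candidate when at least two out of four statistical tests show it departing from its plate mean; one test alone signals a weak candidate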
- Calls: active = candidate regulator (raises or lowers reporter); inactive = not a candidate

firefly reporter light, replicate 1 | firefly reporter light, replicate 2 | Renilla control light, replicate 1 | Renilla control light, replicate 2 | activity call | Target gene | dsRNA
16811 | – | 5168 | – | inactive | Dfd | DRSC12593
19680 | – | 11369 | – | inactive | CG7914 | DRSC20068
19574 | – | 5665 | – | inactive | tou | DRSC06006
6.44e5 | 7.00e5 | 2.51e5 | 3.03e5 | inactive | tou | DRSC22710
16701 | – | 8456 | – | inactive | Wnt2 | DRSC05160
2544 | 7475 | 731 | 3162 | inactive | Wnt2 | DRSC07574
5.86e5 | 6.26e5 | 2.05e5 | 1.91e5 | inactive | CG11367 | DRSC22434
7297 | – | 3832 | – | inactive | CG11247 | DRSC11643
3.63e5 | 4.51e5 | 1.57e5 | 1.79e5 | inactive | CG11247 | DRSC21901
4805 | – | 1576 | – | inactive | JMJD7 | DRSC09703
6012 | – | 3846 | – | inactive | TwdlP | DRSC14734
2560 | 5878 | 481 | 1209 | inactive | CG30416 | DRSC04565
8170 | – | 2576 | – | inactive | CG11843 | DRSC14401
18061 | – | 5401 | – | inactive | Picot | DRSC07508
8489 | – | 3061 | – | inactive | CG14480 | DRSC06452
2530 | 6976 | 1114 | 1008 | inactive | IFT57 | DRSC00720
12849 | – | 2804 | – | inactive | tinc | DRSC14798
16195 | – | 3580 | – | inactive | tinc | DRSC14799
16395 | – | 2576 | – | inactive | tinc | DRSC16308
13466 | – | 2643 | – | inactive | tinc | DRSC16309
1897 | 6760 | 612 | 2072 | inactive | CG18094 | DRSC02655
11641 | – | 3964 | – | inactive | CAH1 + Adat1 | DRSC02009
8583 | – | 3040 | – | inactive | CG13723 | DRSC10052
7760 | – | 2612 | – | inactive | CG33268 | DRSC10143
2509 | 7799 | 1264 | 2720 | inactive | Parg | DRSC18696
22835 | – | 11722 | – | inactive | CG30158 | DRSC04956
3382 | 7480 | 1016 | 3219 | inactive | CG30158 | DRSC04974
2709 | 8384 | 837 | 3123 | inactive | CG30158 | DRSC04975
4103 | 9557 | 1190 | 3513 | inactive | CG30158 | DRSC05012
19379 | – | 6312 | – | inactive | Skp2 + CG14645 | DRSC12231
4896 | – | 3931 | – | inactive | mrt | DRSC15484

Records listed so far whose target name starts with T or t:
firefly reporter light, replicate 1 | firefly reporter light, replicate 2 | Renilla control light, replicate 1 | Renilla control light, replicate 2 | activity call | Target gene | dsRNA
19574 | – | 5665 | – | inactive | tou | DRSC06006
6.44e5 | 7.00e5 | 2.51e5 | 3.03e5 | inactive | tou | DRSC22710
6012 | – | 3846 | – | inactive | TwdlP | DRSC14734
12849 | – | 2804 | – | inactive | tinc | DRSC14798
16195 | – | 3580 | – | inactive | tinc | DRSC14799
16395 | – | 2576 | – | inactive | tinc | DRSC16308
13466 | – | 2643 | – | inactive | tinc | DRSC16309

The results go on.
firefly reporter light, replicate 1 | firefly reporter light, replicate 2 | Renilla control light, replicate 1 | Renilla control light, replicate 2 | activity call | Target gene | dsRNA
22688 | – | 8532 | – | inactive | Mst27D | DRSC00967
6656 | – | 1867 | – | inactive | CG15614 | DRSC06567
16021 | – | 3333 | – | inactive | CG10934 | DRSC06017
21658 | – | 5795 | – | inactive | CG17734 | DRSC15256
3146 | – | 1280 | – | inactive | CG43439 + CG32388 | DRSC08861
9440 | – | 3610 | – | inactive | PEK | DRSC12361
2802 | 8186 | 800 | 2314 | inactive | Scox | DRSC03117
3171 | 9176 | 1034 | 3491 | inactive | CG43366 | DRSC04857
3025 | 6858 | 940 | 2353 | inactive | CG43366 | DRSC04864
3.78e5 | 3.86e5 | 1.76e5 | 2.07e5 | inactive | Cec2 | DRSC21885
1561 | 8347 | 1237 | 3844 | inactive | CG32237 | DRSC08312
1520 | 13537 | 1237 | 4557 | inactive | CG32237 | DRSC08315
3.99e5 | 4.57e5 | 1.59e5 | 1.68e5 | inactive | CG31664 | DRSC22084
4368 | – | 1666 | – | inactive | CG3529 | DRSC10369
3200 | 6841 | 1286 | 3622 | inactive | Tsp42Ef | DRSC06191
13718 | – | 8681 | – | inactive | Larp7 | DRSC18798
1808 | 9569 | 1168 | 4843 | inactive | osi | DRSC02931
17491 | – | 4753 | – | inactive | CG14879 | DRSC15003
